Reference: article PMC5105952

What was measured:
Experiment in all cases: two-hybrid; yeast three-hybrid: Tea fragments on the Gal4 activation domain, either Ver or Moi on the LexA DNA-binding domain, the other of Moi or Ver as a third stand-alone protein
[1] = target: T1, Ver D96G (Drosophila melanogaster) (UniProt Q9VTZ2)
T1 sequence: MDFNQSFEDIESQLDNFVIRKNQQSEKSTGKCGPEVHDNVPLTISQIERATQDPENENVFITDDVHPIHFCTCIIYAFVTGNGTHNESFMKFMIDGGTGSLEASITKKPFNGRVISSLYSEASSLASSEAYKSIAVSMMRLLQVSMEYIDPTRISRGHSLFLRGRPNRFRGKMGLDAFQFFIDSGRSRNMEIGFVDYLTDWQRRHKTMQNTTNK

[2] = target: T2, Moi G45R (Drosophila melanogaster) (UniProt B7Z0L8)
T2 sequence: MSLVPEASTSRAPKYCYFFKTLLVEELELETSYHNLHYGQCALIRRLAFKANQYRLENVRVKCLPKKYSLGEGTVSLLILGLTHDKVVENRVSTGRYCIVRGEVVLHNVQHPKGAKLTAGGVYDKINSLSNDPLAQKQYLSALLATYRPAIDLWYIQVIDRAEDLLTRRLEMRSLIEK

[3] = target: T3, Ver L162P (Drosophila melanogaster) (UniProt Q9VTZ2)
T3 sequence: T1 sequence with G96D, L162P

[4] = target: T4, Ver L101P (Drosophila melanogaster) (UniProt Q9VTZ2)
T4 sequence: T1 sequence with G96D, L101P

Measured: binding

C-terminus of Tea (Drosophila melanogaster) (domain or fragment)
no binding: [1] | [2] | [3] | [4]

Changes are numbered by the printed parent chain. No constants are given. Whether binding was seen depends on the method and setting.
